Assay results published in PMC12059312.
Results are given in words; binding and its absence hold for the method and conditions named. In cells and extracts the contact can be indirect. Some results given as binding are weak or reduced against the parent protein; the word gives no strength.

Target: T1, CDCA7 (human (endogenous in human primary chondrocytes)) (UniProt Q9BWT1)
T1 sequence: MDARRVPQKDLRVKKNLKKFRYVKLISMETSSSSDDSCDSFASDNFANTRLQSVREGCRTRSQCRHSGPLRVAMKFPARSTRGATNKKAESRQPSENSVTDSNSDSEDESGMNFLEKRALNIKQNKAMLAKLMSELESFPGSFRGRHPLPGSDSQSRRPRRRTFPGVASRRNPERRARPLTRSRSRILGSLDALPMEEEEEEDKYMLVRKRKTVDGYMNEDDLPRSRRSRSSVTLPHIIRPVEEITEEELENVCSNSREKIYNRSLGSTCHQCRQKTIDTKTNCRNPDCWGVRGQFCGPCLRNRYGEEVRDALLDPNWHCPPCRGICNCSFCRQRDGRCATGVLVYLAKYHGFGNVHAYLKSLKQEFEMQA
Assay: co-IP; CDCA7 as bait protein; human primary chondrocytes exposed to or not to 20% CTS loading for 24 h

B1: lymphoid-specific helicase (HELLS) (protein, UniProt Q9NRZ9 1-838)
chain: MPAERPAGSGGSEAPAMVEQLDTAVITPAMLEEEEQLEAAGLERERKMLEKARMSWDRESTEIRYRRLQHLLEKSNIYSKFLLTKMEQQQLEEQKKKEKLERKKESLKVKKGKNSIDASEEKPVMRKKRGREDESYNISEVMSKEEILSVAKKNKKENEDENSSSTNLCVEDLQKNKDSNSIIKDRLSETVRQNTKFFFDPVRKCNGQPVPFQQPKHFTGGVMRWYQVEGMEWLRMLWENGINGILADEMGLGKTVQCIATIALMIQRGVPGPFLVCGPLSTLPNWMAEFKRFTPDIPTMLYHGTQEERQKLVRNIYKRKGTLQIHPVVITSFEIAMRDRNALQHCYWKYLIVDEGHRIKNMKCRLIRELKRFNADNKLLLTGTPLQNNLSELWSLLNFLLPDVFDDLKSFESWFDITSLSETAEDIIAKEREQNVLHMLHQILTPFLLRRLKSDVALEVPPKREVVVYAPLSKKQEIFYTAIVNRTIANMFGSSEKETIELSPTGRPKRRTRKSINYSKIDDFPNELEKLISQIQPEVDRERAVVEVNIPVESEVNLKLQNIMMLLRKCCNHPYLIEYPIDPVTQEFKIDEELVTNSGKFLILDRMLPELKKRGHKVLLFSQMTSMLDILMDYCHLRDFNFSRLDGSMSYSEREKNMHSFNTDPEVFIFLVSTRAGGLGINLTAADTVIIYDSDWNPQSDLQAQDRCHRIGQTKPVVVYRLVTANTIDQKIVERAAAKRKLEKLIIHKNHFKGGQSGLNLSKNFLDPKELMELLKSRDYEREIKGSREKVISDKDLELLLDRSDLIDQMNASGPIKEKMGIFKILENSEDSSPECLF
For B1, the binding was “binds”.
